Source: PubChem BioAssay AID1259308 (NCATS, 2017)

Purpose: 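Candidate targets for better recombinant protein yield in mammalian cells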 (primary screen)
Cell system: human HEK293 embryonic kidney cells stably expressing firefly luciferase (HEK-CMV-Luc2-Hygro)
Reagent: single siRNA against human genes, 0.8 pmol siRNA per well
Time to read-out: 72 h
Measured: 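Luciferase light (ONE-Glo) measured on one replicate plate set and viability (CellTiter-Glo) on the other, scaled to a negative control siRNA, with robust z-scores and luciferase per cell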
Reading the numbers: total luciferase, z-score and total luciferase, % of control: higher = more reporter protein produced
Rule for the call: 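Active when the median/MAD z-score for overall luciferase is greater than 3; a gene was taken forward for validation with new siRNAs if at least two of its three siRNAs passed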
Calls: active = raised luciferase; inactive = no rise
In all, the deposit lists about 59,000 reagents; below is a random part of them. Of all reagents, about 1,510 (2.6%) are marked active. 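Calls use total luciferase alone and ignore viability, so some active siRNAs may act by altering cell number.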 The numbers tell different reagents against one gene apart. Further read-outs or replicates are left out here. Reagent sequences are not shown.

no.	gene	siRNA no.	total luciferase, z-score	total luciferase, % of control	activity call
1	NAA60	1	0.753	96.9	inactive
2	NAA60	2	1.01	102	inactive
3	NAA60	3	-0.737	67.2	inactive
4	ZNF534	1	1.12	104	inactive
5	ZNF534	2	1.74	116	inactive
6	ZNF534	3	1.91	120	inactive
7	GRAMD2B	1	-0.174	78.4	inactive
8	GRAMD2B	2	-0.529	71.4	inactive
9	GRAMD2B	3	-0.343	75.1	inactive
10	PLEKHG3	1	1.93	120	inactive
11	PLEKHG3	2	-0.423	73.5	inactive
12	PLEKHG3	3	0.855	98.9	inactive
13	LOX	1	1.21	106	inactive
14	LOX	2	2.08	123	inactive
15	LOX	3	1.01	102	inactive
16	NAT16	1	-1.64	49.3	inactive
17	NAT16	2	0.255	87	inactive
18	NAT16	3	-0.24	77.1	inactive
19	ELL3	1	0.108	84	inactive
20	ELL3	2	-1.34	55.3	inactive
21	ELL3	3	4.23	166	active
22	APC	1	1.95	121	inactive
23	APC	2	-0.107	79.8	inactive
24	APC	3	-0.341	75.1	inactive
25	PCMT1	1	-0.893	64.1	inactive
26	PCMT1	2	-0.424	73.4	inactive
27	PCMT1	3	-1.34	55.3	inactive
28	GALNT6	1	0.635	94.5	inactive
29	GALNT6	2	-2.46	33	inactive
30	GALNT6	3	2.01	122	inactive
31	ABCG2	1	-0.0938	80	inactive
32	ABCG2	2	0.868	99.2	inactive
33	ABCG2	3	1.22	106	inactive
34	GABBR1	1	0.733	96.5	inactive
35	GABBR1	2	-2.07	40.8	inactive
36	GABBR1	3	-0.22	77.5	inactive
37	LINC00471	1	-1.4	54.1	inactive
38	LINC00471	2	1.01	102	inactive
39	LINC00471	3	-0.385	74.2	inactive
40	FILIP1	1	-1.27	56.6	inactive
41	FILIP1	2	-0.298	76	inactive
42	FILIP1	3	0.0824	83.5	inactive
43	STC2	1	-0.373	74.5	inactive
44	STC2	2	4.23	166	active
45	STC2	3	-0.601	69.9	inactive
46	NEUROD6	1	0.829	98.4	inactive
47	NEUROD6	2	-0.506	71.8	inactive
48	NEUROD6	3	-0.549	71	inactive
49	KRT86	1	-1.18	58.4	inactive
50	KRT86	2	0.863	99.1	inactive
51	KRT86	3	-0.356	74.8	inactive
52	KRT86	4	-0.678	68.4	inactive
53	KRT86	5	-1	61.9	inactive
54	KRT86	6	0.236	86.6	inactive
55	RPL17P39	1	-3.13	19.7	inactive
56	RPL17P39	2	2.91	140	inactive
57	RPL17P39	3	-0.57	70.6	inactive
58	GSTZ1	1	1.53	112	inactive
59	GSTZ1	2	1.27	107	inactive
60	GSTZ1	3	1.6	114	inactive
61	WDR45B	1	-1.12	59.5	inactive
62	WDR45B	2	-0.463	72.7	inactive
63	WDR45B	3	-0.273	76.5	inactive
64	CCDC184	1	0.807	97.9	inactive
65	CCDC184	2	-1.88	44.5	inactive
66	CCDC184	3	0.345	88.7	inactive
67	FAT1	1	-1.6	50.2	inactive
68	FAT1	2	0.0312	82.5	inactive
69	FAT1	3	0.117	84.2	inactive
70	ANKRD12	1	0.191	85.7	inactive
71	ANKRD12	2	-0.66	68.8	inactive
72	ANKRD12	3	-1.13	59.3	inactive
73	SP5	1	2.43	130	inactive
74	SP5	2	1.65	115	inactive
75	SP5	3	0.411	90.1	inactive
